Test results as given in patent publication US5670482A (Glaxo Wellcome Inc., priority 1992, dated 1997).

Assay: solid-phase peptide synthesis
Conditions: whole synthesis, capillary zone electrophoresis

IleCysProCysTyrArgLeuArgTyr-NH2,Cyclic(2,2'), (4,4')-Disulfide Dimer and IleCysProCysTyrArgLeuArgTyr-NH2,Cyclic(2,4'),(4,2')-Disulfide Dimer
final purity (method not given): 100% pure
